Assay results reported in PMC5735978.

T1: 3xFlag-PAK6 K436M (UniProt Q9NQU5)
T1 sequence: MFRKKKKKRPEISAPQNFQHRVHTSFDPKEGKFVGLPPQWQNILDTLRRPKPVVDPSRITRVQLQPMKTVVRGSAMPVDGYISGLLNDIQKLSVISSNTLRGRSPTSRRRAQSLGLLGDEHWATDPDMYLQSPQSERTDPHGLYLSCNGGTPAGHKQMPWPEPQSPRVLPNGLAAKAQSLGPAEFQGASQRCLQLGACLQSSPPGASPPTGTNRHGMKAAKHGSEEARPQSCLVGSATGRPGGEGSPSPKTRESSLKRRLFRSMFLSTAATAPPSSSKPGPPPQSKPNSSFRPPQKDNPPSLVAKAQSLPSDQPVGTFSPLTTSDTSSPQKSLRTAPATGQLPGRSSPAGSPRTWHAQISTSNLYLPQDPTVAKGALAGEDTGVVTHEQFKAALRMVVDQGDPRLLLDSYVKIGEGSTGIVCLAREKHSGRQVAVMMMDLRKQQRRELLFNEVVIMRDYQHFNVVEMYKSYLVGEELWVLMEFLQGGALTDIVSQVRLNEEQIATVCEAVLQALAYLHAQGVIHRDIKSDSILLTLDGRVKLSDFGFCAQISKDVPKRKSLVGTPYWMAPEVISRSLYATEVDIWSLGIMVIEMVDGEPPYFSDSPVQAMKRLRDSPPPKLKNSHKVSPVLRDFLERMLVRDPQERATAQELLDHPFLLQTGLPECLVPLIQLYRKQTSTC

B1: 14-3-3 eta (endogenous, HEK293T) (protein, UniProt Q04917 1-246)
chain: MGDREQLLQRARLAEQAERYDDMASAMKAVTELNEPLSNEDRNLLSVAYKNVVGARRSSWRVISSIEQKTMADGNEKKLEKVKAYREKIEKELETVCNDVLSLLDKFLIKNCNDFQYESKVFYLKMKGDYYRYLAEVASGEKKNSVVEASEAAYKEAFEISKEQMQPTHPIRLGLALNFSVFYYEIQNAPEQACLLAKQAFDDAIAELDTLNEDSYKDSTLIMQLLRDNLTLWTSDQQDEEAGEGN
B2: 14-3-3 gamma (endogenous, HEK293T) (protein, UniProt P61981 1-247)
chain: MVDREQLVQKARLAEQAERYDDMAAAMKNVTELNEPLSNEERNLLSVAYKNVVGARRSSWRVISSIEQKTSADGNEKKIEMVRAYREKIEKELEAVCQDVLSLLDNYLIKNCSETQYESKVFYLKMKGDYYRYLAEVATGEKRATVVESSEKAYSEAHEISKEHMQPTHPIRLGLALNYSVFYYEIQNAPEQACHLAKTAFDDAIAELDTLNEDSYKDSTLIMQLLRDNLTLWTSDQQDDDGGEGNN
B3: 14-3-3 theta (endogenous, HEK293T) (protein, UniProt P27348 1-245)
chain: MEKTELIQKAKLAEQAERYDDMATCMKAVTEQGAELSNEERNLLSVAYKNVVGGRRSAWRVISSIEQKTDTSDKKLQLIKDYREKVESELRSICTTVLELLDKYLIANATNPESKVFYLKMKGDYFRYLAEVACGDDRKQTIDNSQGAYQEAFDISKKEMQPTHPIRLGLALNFSVFYYEILNNPELACTLAKTAFDEAIAELDTLNEDSYKDSTLIMQLLRDNLTLWTSDSAGEECDAAEGAEN

target: 3xFlag-PAK6 S531N (UniProt Q9NQU5); assay: affinity purification with mass spectrometry; 3xFlag-PAK6 variants immunoprecipitated from transfected HEK293T lysates with anti-Flag M2 agarose; SDS-PAGE, Coomassie staining; doublet around 25 kDa identified by LC-MS/MS

| binding | Binder |
| --- | --- |
| binds | B1 |
| binds | B2 |
| binds | B3 |

target: 3xFlag-PAK6 wild-type (UniProt Q9NQU5); assay: as above

| binding | Binder |
| --- | --- |
| binds | B1 |
| binds | B2 |
| binds | B3 |

target: T1, 3xFlag-PAK6 K436M; assay: as above

| binding | Binder |
| --- | --- |
| no binding | B1 |
| no binding | B2 |
| no binding | B3 |

These are yes or no findings as the source states them, for the method shown. Binding seen in cells or lysates may run through a third protein. These calls come from enrichment with a bait or labelling near it, and not all partners need be listed. For part of these data: No binding means not detected with the bait. For part of these data: Sequences can lack the tags named with a protein.
